These are yes or no findings as the source states them, for the method shown. In cells and extracts the contact can be indirect. Binding can be weak; no strength is given. Tags and fused reporters may be left off the sequences shown.
Biological target: T1, Arabidopsis thaliana plasmodesmata-located protein 1 (PDLP1) fused to RFP (Arabidopsis thaliana) (UniProt Q8GXV7)
T1 sequence: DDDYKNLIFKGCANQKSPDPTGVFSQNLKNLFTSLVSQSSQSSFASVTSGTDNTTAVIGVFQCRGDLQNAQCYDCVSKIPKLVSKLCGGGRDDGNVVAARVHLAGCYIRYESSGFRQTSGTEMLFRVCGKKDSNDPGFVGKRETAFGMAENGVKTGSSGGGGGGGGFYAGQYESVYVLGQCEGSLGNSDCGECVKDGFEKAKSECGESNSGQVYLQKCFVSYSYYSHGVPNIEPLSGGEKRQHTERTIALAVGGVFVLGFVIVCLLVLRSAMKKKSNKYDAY
Assay: FRET or BRET; FRET-FLIM: GFP on the MP as donor, RFP on PDLP1 as acceptor; co-expressed by agroinfiltration in N. benthamiana leaves, measured at spots in plasmodesmata; donor fluorescence lifetime by time-correlated single-photon counting

grapevine fanleaf virus (GFLV) 2B movement protein with GFP fused at its N-terminus
binding: binds

From article PMC4987395
